PubChem BioAssay AID602196 – INSERM, 2012
The deposit covers about 23,000 reagents; below is an unselected part. 455 of all reagents (2%) were called active. 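Active includes both protection and sensitisation; some change values fall well beyond the stated -50 to +50 range.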 Unmarked entries are inactive. Reagents against one gene are numbered here. Further read-outs or replicates are left out here. Not stated in the record: the amount of reagent.

Test: 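Knock-downs that protect lung cancer cells from cisplatin or sensitise them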
Cell system: human A549 lung cancer cells
Reagents: siRNA pair against human genes
Time to read-out: 48 h transfection before cisplatin; time from cisplatin to read-out not stated
Treatment: cisplatin at a dose killing half of control-siRNA cells; exact dose and duration not given
Detection: 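Shift in cisplatin death relative to control siRNA, from -50 (all cells die) to +50 (no cells die); siRNAs harmful on their own scored 0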
Direction: two-siRNA summed score (-2 to +2): higher = both siRNAs protect from cisplatin killing; -2 means both sensitise; mean protection from cisplatin (shift in death) and protection from cisplatin (shift in death), siRNA C: higher = protection from cisplatin killing
Hit rule: 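Each siRNA scores 0 if harmful alone by LDH or WST-1, otherwise +1 if it reduces and -1 if it increases cisplatin killing; a gene is active when both siRNAs agree (sum +2 or -2)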
Meaning of the calls: active = both siRNAs shift cisplatin killing the same way; inactive = no consistent shift, or siRNA harmful alone

Gene	reagent	two-siRNA summed score (-2 to +2)	mean protection from cisplatin (shift in death) (%)	protection from cisplatin (shift in death), siRNA C (%)
HPN	1	-1	-10.1	-1.9
FLJ45422	1	0	3.3	0.6
LOC389071	1	0	5.1	7.9
LOC442452	1	0	9.8	0.3
TNNT2	1	-1	-10.4	-19.3
LOC441515	1	1	10.8	17.2
CFAP45	1	-1	-7	-24
LOC388774	1	0	6.3	4
KCNK1	1	0	-5.3	-13.9
CUL7	1	0	0.3	1.7
FYB1	1	0	4.5	1.6
SRD5A1	1	-1	-11.6	-16.6
SRD5A1	2	-1	-10.7	-16.3
COMT	1	0	21.5	-1.5
COL27A1	1	0	-0.3	-5.6
CFAP61	1	0	6.5	3.4
ING2	1	0	7.9	-13.9
LOC440971	1	0	3.7	-5.9
CRELD2	1	0	5.5	9.9
LOC343930	1	0	6.1	2.9
MED13	1	0	-5.6	-10.7
ZNF526	1	0	0	10.2
AP1M2	1	0	5	5
NGDN	1	0	11.1	11.5
SLC35D4	1	0	-1.4	6.8
NR4A3	1	0	7.1	13.5
NLGN4X	1	0	2.4	1.3
ARV1	1	0	-0.8	-5
IRF7	1	0	-0.8	-4.7
SLC48A1	1	0	-6.2	-18.5
ARHGAP35	1	2 (active)	15.7	18.5
DEFB105A	1	0	3.7	5
ALX3	1	0	12.1	12.5
ESYT3	1	0	4.1	6.6
DNAJB13	1	1	5.6	10.9
CYP4X1	1	0	0.2	1.4
LOC440715	1	1	14.5	23.5
GARIN1B	1	0	-1.2	-4.6
LOC387903	1	0	2.6	3.2
MRPS34	1	0	-4	-2.1
TGFB3	1	0	7.8	4.5
LOC392314	1	0	4.1	-4.9
CLIC6	1	0	-3.4	1.5
TTC22	1	0	5	7.7
MAPK7	1	1	14.7	6.7
LOC441663	1	1	18.3	13.2
EEF1B2	1	-1	-5.7	1.1
FAM106A	1	0	1.5	-4.2
PLG	1	-1	-12.5	-28.5
SPIDR	1	-1	-8.9	-25.7
OSM	1	0	-3.1	-6.4
LOC150297	1	0	7.9	13.6
HAGH	1	0	23.1	27.6
MOK	1	0	-4.2	-9.1
CRISPLD1	1	0	-3.9	1.9
FAM107B	1	-1	-13.6	-18.4
LOC399867	1	0	5.7	5.2

Called active, of those listed so far:
Gene	reagent	two-siRNA summed score (-2 to +2)	mean protection from cisplatin (shift in death) (%)	protection from cisplatin (shift in death), siRNA C (%)
ARHGAP35	1	2 (active)	15.7	18.5
